Out of some 330,000 compounds screened, about 7,700 (2.3%) were called active. This list was built around the results that the source calls inconclusive (neither active nor inactive); the mix of calls is not that of the screen. Calls follow the shape of the dose curve; as a rule, active = well fitted inhibition curve with a large enough effect; inconclusive = small, poorly fitted or top-dose-only effect, or effect the other way; inactive = flat fitted curve, though single readings scatter. Potencies of inconclusive entries are doubtful fits and often do not repeat.
assay: qHTS screen for small molecules that inhibit ELG1-dependent DNA repair in human embryonic kidney (HEK293T) cells expressing luciferase-tagged ELG1; details: HEK293T ELG1-luciferase reporter, luminescence, 16 h, DNA damage induced by 5-fluorouridine; activity change, negative = inhibition: at 46.1 µM (top of the series); also: nearly all actives have a fitted effect of over 55% in size
Summary of the method: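 Luminescence from the luciferase reporter, measured 30 min after ONE-Glo reagent at room temperature, was the read-out. Beforehand, 2,000 cells per well were exposed for 16 hr at 37 °C to 5-fluorouridine together with compound or vehicle.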
% is scaled to controls: 0 for no effect and ±100 for the full control effect; potency is read from the fitted curve at half-maximal effect.

Structure (SMILES) | Potency | activity change, negative = inhibition
COc1ccc(C(=O)CSc2nnc(-c3cc4ccccc4cc3O)n2Cc2ccco2)cc1 | inconclusive: 35.5 µM [inhibitor, single point] | 
COc1cccc(CNC(=O)c2nnn(CC(=O)Nc3cc(C)ccc3C)c2N)c1 | inconclusive: 29.1 µM [activator, single point] | 
O=C(NC(=S)Nc1ccccc1Cl)c1cncc(Br)c1 | inconclusive: 0.517 µM [inhibitor, full curve, poor fit] | 
O=C1C=CC(=O)N1c1ccc(Sc2ccc([N+](=O)[O-])cc2)cc1 | inconclusive: 3.66 µM [inhibitor, single point] | 
Cc1c(Cc2ccccc2)c(=O)oc2cc(OC(C)C(=O)NCC3CCC(C(=O)O)CC3)c(Cl)cc12 (centres undefined) | inconclusive: 0.082 µM [inhibitor, single point] | 
O=C(CCN1C(=O)C2C3C=CC(C3)C2C1=O)N1CCN(c2ccccc2Cl)CC1 (centres undefined) | inconclusive: 25.1 µM [inhibitor, single point] | 
NS(=O)(=O)c1ccc2nc(NC(=O)Nc3ccccc3F)sc2c1 | inconclusive: 1.03 µM [activator, full curve] | 
Oc1ccc(-c2nc3ccc4ccccc4c3c3c2CCC3)cc1O | inconclusive: 23.1 µM [activator, single point] | 
Cc1ccc(S(=O)(=O)N2CCOC2CNC(=O)C(=O)NCc2ccccc2)cc1 (centres undefined) |  | inactive: -13.8%
Nc1c(C(=O)CSc2nnc(-c3ccccc3)o2)c(=O)[nH]c(=O)n1C1CC1 | inconclusive: 35.5 µM [activator, single point] | 
CCOC(=O)c1c(C)nc(C)c(C(=O)OCC)c1-c1ccco1 |  | inactive: 0%
COc1ccc2c(c1)N(C)/C(=C/c1cccc[n+]1C)S2 | inconclusive: 6.51 µM [inhibitor, partial curve, poor fit] | 
O=C(N[C@@H]1C/C=C\C[C@@H](CC(=O)N(CCO)Cc2ccccc2)C(=O)N[C@H](Cc2ccccc2)COC1=O)OCC1c2ccccc2-c2ccccc21 |  | inactive: 6.07%
CCOC(=O)c1c(NC(=O)C(C)OC(=O)C2=COCCO2)sc2c1CCCC2 (centres undefined) | inconclusive: 18.3 µM [inhibitor, single point] | 
COC(=O)[C@@]12CCCCN1[C@H](c1ccc(-c3ccc(C(C)=O)cc3)cc1)[C@@H]1C(=O)N(C)C(=O)[C@@H]12 | inconclusive: 3.16 µM [inhibitor, single point] | 
COc1ccc(NC(=O)CSc2nnc(-c3ccccn3)n2N)cc1Cl |  | inactive: 1.03%
Cc1ccc(C(=O)NCC(=O)N2CCCCCCC2)cc1C | inconclusive: 18.3 µM [activator, partial curve] | 
CCC1Sc2ccccc2N(CC(=O)NCc2ccc3c(c2)OCO3)C1=O (centres undefined) | inconclusive: 4.11 µM [inhibitor, single point] | 
CNC(=O)[C@@H]1C[C@H]1[C@@H](NC(=O)OCc1ccccc1)c1ccccc1 | inconclusive: 18.4 µM [activator, partial curve] | 
CCC(CC)c1nnc(NC(=O)c2cc(-c3ccccc3)nc3ccccc23)s1 |  | inactive: 5.13%
c1ccc(N2CCN(c3nc(-c4ccccn4)nc4ccccc34)CC2)cc1 | inconclusive: 29.1 µM [inhibitor, single point] | 
Cn1c(=O)c2c(ncn2Cc2ccc(Cl)cc2)n(C)c1=O | inconclusive: 29.1 µM [inhibitor, single point] | 

As a working copy, some entries already given:
Structure (SMILES) | Potency | activity change, negative = inhibition
O=C1C=CC(=O)N1c1ccc(Sc2ccc([N+](=O)[O-])cc2)cc1 | inconclusive: 3.66 µM [inhibitor, single point] | 
Cc1c(Cc2ccccc2)c(=O)oc2cc(OC(C)C(=O)NCC3CCC(C(=O)O)CC3)c(Cl)cc12 (centres undefined) | inconclusive: 0.082 µM [inhibitor, single point] | 
O=C(CCN1C(=O)C2C3C=CC(C3)C2C1=O)N1CCN(c2ccccc2Cl)CC1 (centres undefined) | inconclusive: 25.1 µM [inhibitor, single point] | 
NS(=O)(=O)c1ccc2nc(NC(=O)Nc3ccccc3F)sc2c1 | inconclusive: 1.03 µM [activator, full curve] | 
Oc1ccc(-c2nc3ccc4ccccc4c3c3c2CCC3)cc1O | inconclusive: 23.1 µM [activator, single point] | 
Cc1ccc(S(=O)(=O)N2CCOC2CNC(=O)C(=O)NCc2ccccc2)cc1 (centres undefined) |  | inactive: -13.8%
Nc1c(C(=O)CSc2nnc(-c3ccccc3)o2)c(=O)[nH]c(=O)n1C1CC1 | inconclusive: 35.5 µM [activator, single point] | 
CCOC(=O)c1c(C)nc(C)c(C(=O)OCC)c1-c1ccco1 |  | inactive: 0%
COc1ccc2c(c1)N(C)/C(=C/c1cccc[n+]1C)S2 | inconclusive: 6.51 µM [inhibitor, partial curve, poor fit] | 
O=C(N[C@@H]1C/C=C\C[C@@H](CC(=O)N(CCO)Cc2ccccc2)C(=O)N[C@H](Cc2ccccc2)COC1=O)OCC1c2ccccc2-c2ccccc21 |  | inactive: 6.07%
CCOC(=O)c1c(NC(=O)C(C)OC(=O)C2=COCCO2)sc2c1CCCC2 (centres undefined) | inconclusive: 18.3 µM [inhibitor, single point] | 
COC(=O)[C@@]12CCCCN1[C@H](c1ccc(-c3ccc(C(C)=O)cc3)cc1)[C@@H]1C(=O)N(C)C(=O)[C@@H]12 | inconclusive: 3.16 µM [inhibitor, single point] | 
COc1ccc(NC(=O)CSc2nnc(-c3ccccn3)n2N)cc1Cl |  | inactive: 1.03%
Cc1ccc(C(=O)NCC(=O)N2CCCCCCC2)cc1C | inconclusive: 18.3 µM [activator, partial curve] | 

More records.

Structure (SMILES) | Potency | activity change, negative = inhibition
CCCCn1c(=N)n(CCOc2ccc(C)cc2)c2ccccc21 | inconclusive: 25.9 µM [inhibitor, partial curve, poor fit] | 
COc1ccc([N+](=O)[O-])cc1NC(=S)Nc1ccccc1 |  | inactive: -3.09%
CCS(=O)(=O)N1CCN(c2ccc([N+](=O)[O-])c(NCC3CCCO3)c2)CC1 (centres undefined) |  | inactive: 9.05%
CCCCn1c(N)c(N(CC(C)C)C(=O)C2CCCO2)c(=O)[nH]c1=O (centres undefined) |  | inactive: 0%
CCOCCCN(C)C1CCN(S(=O)(=O)c2csc(C(N)=O)c2)CC1 | inconclusive: 16.4 µM [activator, partial curve, poor fit] | 
O=c1cc(N2CCCCC2)c(-c2ccccc2)nn1Cc1c(Cl)cccc1Cl | inconclusive: 29.1 µM [inhibitor, single point] | 
COc1ccc(/C=C/C(=O)Nc2cc(C)nn2-c2nc3ccccc3[nH]2)cc1 | inconclusive: 29.1 µM [inhibitor, single point] | 
COc1cc(/C=C/C(=O)N2c3ccccc3Sc3ccc(C(F)(F)F)cc32)cc(OC)c1OC | active: 9.2 µM | 
C[C@H](CO)N1C[C@H](C)[C@@H](CN(C)C(=O)Nc2ccccc2)Oc2ccc(NC(=O)Cc3ccccc3)cc2C1=O |  | inactive: 4.54%
COC(=O)c1cc(S(=O)(=O)NCCN2CCN(c3ccccc3F)CC2)c[nH]1 |  | inactive: -1.37%
Cc1cnc(C(=O)Nc2nnc(C(C)C)s2)cn1 | inconclusive: 16.4 µM [activator, partial curve] | 
COC(=O)[C@@H](NC(=O)O[C@@H]1C(=O)c2ccc(OC)cc2O[C@H]1c1cccc(C(F)(F)F)c1)C(C)C | inconclusive: 29.1 µM [inhibitor, single point] | 
COc1cccc(CNC(=O)CN(C)S(=O)(=O)c2ccc(Br)s2)c1 |  | inactive: -2.82%
CN(CC(=O)Nc1ccc(Cl)c(C(F)(F)F)c1)C(=O)C1CC(=O)N(C2CCCC2)C1 (centres undefined) | inconclusive: 12.6 µM [inhibitor, partial curve] | 
O=C1CCc2cc(S(=O)(=O)NCc3ccc(F)cc3)cc3c2N1CCC3 | inconclusive: 6.51 µM [inhibitor, single point] | 
Cc1c(C(=O)N/N=C/c2cccs2)nc2ccccn12 | inconclusive: 29.1 µM [activator, single point] | 
C/C=C(\C)c1nnc(NC(=O)OCC)s1 | inconclusive: 20.6 µM [activator, single point] | 
O=c1[nH]c2ccccc2c2cn(-c3ccccc3)nc12 | inconclusive: 14.6 µM [activator, partial curve] | 
Cc1ccc(NC(=O)C2CC(=O)OC23CCOC(C)(C)C3)cc1 (centres undefined) | inconclusive: 0.184 µM [activator, full curve, poor fit] | 
c1ccc2c(c1)nc(NCC1CCCO1)c1nnnn12 (centres undefined) | inconclusive: 11.6 µM [activator, partial curve] | 
Cc1ccc(NS(=O)(=O)c2ccc(NC(=O)c3cccs3)cc2)cc1 | inconclusive: 0.206 µM [activator, single point] | 
Cc1cccc(C(=O)N2CCN(C(=O)c3cccc(C)c3)C(C)C2)c1 (centres undefined) | inconclusive: 5.8 µM [inhibitor, partial curve, poor fit] | 

Structure (SMILES) | Potency | activity change, negative = inhibition
CC1CCCCN1c1ncnc2ccccc12 (centres undefined) | inconclusive: 2.31 µM [inhibitor, full curve] | 
Cn1c(=Nc2ccccc2)sc2ccccc21 | inconclusive: 20.6 µM [activator, partial curve] | 
CC(=O)Nc1ccc2c(CSc3nnc(-c4cccnc4)n3-c3ccc(C)cc3C)cc(=O)oc2c1 | active: 9.2 µM | 
COc1ccc(CCN(C(=S)Nc2ccccc2)C2CC(=O)N(c3ccccc3)C2=O)cc1 (centres undefined) |  | inactive: 5.28%
O=C(CN1CCC(C(=O)O)CC1)Nc1ccccc1Oc1ccccc1 |  | inactive: 7.86%
c1ccc(-c2ccc(C3=Nn4c(nnc4-c4cccs4)SC3)cc2)cc1 | inconclusive: 23.1 µM [inhibitor, single point] | 
Cc1ccccc1NC(=O)c1ccc2ccccc2c1 | inconclusive: 13 µM [activator, partial curve] | 
COCCCN=C1NN=C(c2cc(C)n(Cc3ccco3)c2C)CS1 | inconclusive: 4.61 µM [activator, full curve] | 
N/C(=N\OC(=O)COc1ccc(Br)cc1Cl)c1cccnc1 | inconclusive: 9.2 µM [activator, partial curve] | 
Cc1c(NC(=S)N2CCN(c3cccc(Cl)c3)CC2)c(=O)n(-c2ccccc2)n1C | inconclusive: 29.1 µM [inhibitor, single point] | 
CC(C)(C)NC(=O)C(c1ccncc1)N(Cc1cccs1)C(=O)Cn1nnc(-c2ccc(F)cc2)n1 (centres undefined) | inconclusive: 23.1 µM [inhibitor, single point] | 
CN(C)S(=O)(=O)c1cc(NC(=O)COC(=O)C2COc3ccccc3O2)ccc1Cl (centres undefined) | inconclusive: 16.4 µM [activator, partial curve, poor fit] | 
CN1C[C@@H]2[C@@H]3C(=O)N(Cc4ccccc4)C(=O)[C@@H]3[C@](C)(C1=O)N2C(=O)c1ccc(Cl)cc1 | inconclusive: 23.1 µM [inhibitor, partial curve, poor fit] | 
Cc1ccc2cccc(OCC(=O)Nc3ccc(N4CCOCC4)cc3)c2n1 | inconclusive: 16.4 µM [inhibitor, single point] | 
c1cc2c(c(NCc3ccncc3)c1)CCCC2 |  | inactive: -18.2%
CCc1ccc(NC(=O)c2ccc3nc(N)sc3c2)cc1 | inconclusive: 16.4 µM [activator, partial curve] | 
C#CCOCCOCCOCCNc1nc(N2CCN(C(=O)CCCCCCCCCCNC(=O)[C@H](CCCCN)n3cc(C)nn3)CC2)nc(N2CCN(C(=O)CCCCCCCCCCNC(=O)[C@@H]([C@H](C)O)n3cc(C)nn3)CC2)n1 | active: 14.1 µM | 
Cc1ccc(-n2ncc3c(=O)n(Cc4cccnc4)cnc32)cc1 | inconclusive: 18.4 µM [inhibitor, partial curve] | 
O=C(CSc1nc2ccccc2c(=O)[nH]1)N1CCCCC1 | inconclusive: 16.4 µM [activator, single point] | 
Cc1ccc(S(=O)(=O)N(C)CC(=O)Nc2nc3ccccc3s2)cc1 | inconclusive: 25.9 µM [inhibitor, single point] | 

Source: PubChem BioAssay AID504467 (National Center for Advancing Translational Sciences (NCATS), 2011)
